In patent publication US11187690B2, “Synthetic receptors for hydrosulfide” (University of Oregon, priority 2016, dated 2021):
Some results were stated once for a whole list of compounds, not compound by compound.

Test: Reversibility of HS^− binding (NBu4SH then Zn(OAc)2, 1H NMR)
Conditions: hydrogen-bond binding, for 1: 1.0 mM in 10% DMSO-d6/CD3CN, 2 equiv NBu4SH, 4 equiv Zn(OAc)2, 5 more equiv NBu4SH

Compound	reversibility of HS^− binding	reversibility of HS^− binding (listed as Compound 1)
COc1ccc(NC(=O)Nc2ccc(C(C)(C)C)cc2C#Cc2cc(Cl)cc(C#Cc3cc(C(C)(C)C)ccc3NC(=O)Nc3ccc(OC)cc3)c2)cc1 [Compound 4]	reversibly bind HS^−	
COc1ccc(NC(=O)Nc2ccc(C(C)(C)C)cc2C#Cc2cc(F)cc(C#Cc3cc(C(C)(C)C)ccc3NC(=O)Nc3ccc(OC)cc3)c2)cc1 [Compound 5]	reversibly bind HS^−	
COc1ccc(NC(=O)Nc2ccc(C(C)(C)C)cc2C#Cc2cccc(C#Cc3cc(C(C)(C)C)ccc3NC(=O)Nc3ccc(OC)cc3)c2)cc1 [Host 1]		reversibly bind HS^−
COc1ccc(NC(=O)Nc2ccc(C(C)(C)C)cc2C#Cc2cccc(C#Cc3cc(C(C)(C)C)ccc3NC(=O)Nc3ccc(OC)cc3)n2)cc1 [Host 2]	reversibly bind HS^−	
CC(C)(C)c1ccc(NC(=O)Nc2ccccc2)c(C#Cc2cccc(C#Cc3cc(C(C)(C)C)ccc3NC(=O)Nc3ccccc3)n2)c1 [Host 3]	reversibly bind HS^−	
